Experimental data as given in the supplement of paper PMC8728848.
This is one part of the list.

How the values were obtained:
Experiment in all cases: glycan array binding signal (z-score within array); higher = stronger binding
Settings in all cases: glycan notation: IUPAC condensed, linker removed
[1] = target: Neu5Ac(a2-3)Gal(b1-4)GlcNAc(b1-2)Man
How it was run: (§1)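 Negative Z-scores can be read as non-binding. The Z-score is calculated within each array and then averaged across arrays of one protein sequence at different concentrations or buffers and across linkers. Arrays, 3228 in all, were curated from the Consortium for Functional Glycomics database and kept only where the protein sequence was available.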

[2] = target: Neu5Ac(a2-3)Gal(b1-4)GlcNAc(b1-2)Man(a1-3)[GlcNAc(b1-2)Man(b1-4)GlcNAc(b1-2)Man(a1-6)]Man(b1-4)GlcNAc(b1-4)GlcNAc
How it was run: as §1

[3] = target: Neu5Ac(a2-3)Gal(b1-4)GlcNAc(b1-2)Man(a1-3)[GlcNAc(b1-4)][Neu5Ac(a2-3)Gal(b1-4)GlcNAc(b1-2)Man(a1-6)]Man(b1-4)GlcNAc(b1-4)GlcNAc
How it was run: as §1

[4] = target: Neu5Ac(a2-3)Gal(b1-4)GlcNAc(b1-2)Man(a1-3)[Neu5Ac(a2-3)Gal(b1-4)GlcNAc(b1-2)Man(a1-6)]Man(b1-4)GlcNAc(b1-4)GlcNAc
How it was run: as §1

[5] = target: Neu5Ac(a2-3)Gal(b1-4)GlcNAc(b1-2)Man(a1-3)[Neu5Ac(a2-3)Gal(b1-4)GlcNAc(b1-2)Man(a1-6)]Man(b1-4)GlcNAc(b1-4)[Fuc(a1-6)]GlcNAc
How it was run: as §1

[6] = target: Neu5Ac(a2-3)Gal(b1-4)GlcNAc(b1-2)Man(a1-3)[Neu5Ac(a2-6)Gal(b1-4)GlcNAc(b1-2)Man(a1-6)]Man(b1-4)GlcNAc(b1-4)GlcNAc
How it was run: as §1

[7] = target: Neu5Ac(a2-3)Gal(b1-4)GlcNAc(b1-2)[Neu5Ac(a2-3)Gal(b1-4)GlcNAc(b1-4)]Man(a1-3)[GlcNAc(b1-4)][Neu5Ac(a2-3)Gal(b1-4)GlcNAc(b1-2)[Neu5Ac(a2-3)Gal(b1-4)GlcNAc(b1-6)]Man(a1-6)]Man(b1-4)GlcNAc(b1-4)GlcNAc
How it was run: as §1

[8] = target: Neu5Ac(a2-3)Gal(b1-4)GlcNAc(b1-2)[Neu5Ac(a2-3)Gal(b1-4)GlcNAc(b1-4)]Man(a1-3)[GlcNAc(b1-4)][Neu5Ac(a2-3)Gal(b1-4)GlcNAc(b1-4)Man(a1-6)]Man(b1-4)GlcNAc(b1-4)GlcNAc
How it was run: as §1

[9] = target: Neu5Ac(a2-3)Gal(b1-4)GlcNAc(b1-2)[Neu5Ac(a2-3)Gal(b1-4)GlcNAc(b1-6)]Man(a1-6)[Neu5Ac(a2-3)Gal(b1-4)GlcNAc(b1-2)Man(a1-3)][GlcNAc(b1-4)]Man(b1-4)GlcNAc(b1-4)GlcNAc
How it was run: as §1

[10] = target: Neu5Ac(a2-3)Gal(b1-4)GlcNAc(b1-3)Gal
How it was run: as §1

[11] = target: Neu5Ac(a2-3)Gal(b1-4)GlcNAc(b1-3)Gal(b1-3)GlcNAc
How it was run: as §1

[12] = target: Neu5Ac(a2-3)Gal(b1-4)GlcNAc(b1-3)Gal(b1-4)GlcNAc
How it was run: as §1

[13] = target: Neu5Ac(a2-3)Gal(b1-4)GlcNAc(b1-3)Gal(b1-4)GlcNAc(b1-2)Man(a1-3)[Neu5Ac(a2-3)Gal(b1-4)GlcNAc(b1-3)Gal(b1-4)GlcNAc(b1-2)Man(a1-6)]Man(b1-4)GlcNAc(b1-4)GlcNAc
How it was run: as §1

[14] = target: Neu5Ac(a2-3)Gal(b1-4)GlcNAc(b1-3)Gal(b1-4)GlcNAc(b1-3)Gal(b1-4)GlcNAc
How it was run: as §1

[15] = target: Neu5Ac(a2-3)Gal(b1-4)GlcNAc(b1-3)Gal(b1-4)GlcNAc(b1-3)Gal(b1-4)GlcNAc(b1-2)Man(a1-3)[Neu5Ac(a2-3)Gal(b1-4)GlcNAc(b1-3)Gal(b1-4)GlcNAc(b1-3)Gal(b1-4)GlcNAc(b1-2)Man(a1-6)]GalNAc
How it was run: as §1

[16] = target: Neu5Ac(a2-3)Gal(b1-4)GlcNAc(b1-3)Gal(b1-4)GlcNAc(b1-3)GalNAc
How it was run: as §1

[17] = target: Neu5Ac(a2-3)Gal(b1-4)GlcNAc(b1-3)Gal(b1-4)GlcNAc(b1-3)[Neu5Ac(a2-3)Gal(b1-4)GlcNAc(b1-3)Gal(b1-4)GlcNAc(b1-6)]GalNAc
How it was run: as §1

[18] = target: Neu5Ac(a2-3)Gal(b1-4)GlcNAc(b1-3)Gal(b1-4)GlcNAc(b1-6)[Gal(b1-3)]GalNAc
How it was run: as §1

[19] = target: Neu5Ac(a2-3)Gal(b1-4)GlcNAc(b1-3)Gal(b1-4)[Fuc(a1-3)]GlcNAc
How it was run: as §1

[20] = target: Neu5Ac(a2-3)Gal(b1-4)GlcNAc(b1-3)GalNAc
How it was run: as §1

[21] = target: Neu5Ac(a2-3)Gal(b1-4)GlcNAc(b1-3)[Neu5Ac(a2-3)Gal(b1-4)GlcNAc(b1-6)]GalNAc
How it was run: as §1

[22] = target: Neu5Ac(a2-3)Gal(b1-4)GlcNAc(b1-6)GalNAc
How it was run: as §1

[23] = target: Neu5Ac(a2-3)Gal(b1-4)GlcNAc(b1-6)[Gal(b1-3)]GalNAc
How it was run: as §1

[24] = target: Neu5Ac(a2-3)Gal(b1-4)GlcNAc(b1-6)[Neu5Ac(a2-3)Gal(b1-3)]GalNAc
How it was run: as §1

[25] = target: Neu5Ac(a2-3)Gal(b1-4)GlcNAc6S
How it was run: as §1

[26] = target: Neu5Ac(a2-3)Gal(b1-4)[Fuc(a1-3)]GlcNAc
How it was run: as §1

[27] = target: Neu5Ac(a2-3)Gal(b1-4)[Fuc(a1-3)]GlcNAc(b1-2)Man
How it was run: as §1

[28] = target: Neu5Ac(a2-3)Gal(b1-4)[Fuc(a1-3)]GlcNAc(b1-3)Gal
How it was run: as §1

B1: MFG-E8 (Mus musculus), P21956 (protein)
chain: MQVSRVLAALCGMLLCASGLFAASGDFCDSSLCLNGGTCLTGQDNDIYCLCPEGFTGLVCNETERGPCSPNPCYNDAKCLVTLDTQRGDIFTEYICQCPVGYSGIHCETETNYYNLDGEYMFTTAVPNTAVPTPAPTPDLSNNLASRCSTQLGMEGGAIADSQISASSVYMGFMGLQRWGPELARLYRTGIVNAWTASNYDSKPWIQVNLLRKMRVSGVMTQGASRAGRAEYLKTFKVAYSLDGRKFEFIQDESGGDKEFLGNLDNNSLKVNMFNPTLEAQYIKLYPVSCHRGCTLRFELLGCELHGCSEPLGLKNNTIPDSQMSASSSYKTWNLRAFGWYPHLGRLDNQGKINAWTAQSNSAKEWLQVDLGTQRQVTGIITQGARDFGHIQYVASYKVAHSDDGVQWTVYEEQGSSKVFQGNLDNNSHKKNIFEKPFMARYVRVLPVSWHNRITLRLELLGC
For B1, the “glycan array binding signal (z-score)” value [1] was 0.704, the “glycan array binding signal (z-score)” value [2] was 0.508 and the “glycan array binding signal (z-score)” value [3] was -0.344. The “glycan array binding signal (z-score)” value [4] was -0.494, the “glycan array binding signal (z-score)” value [5] was -0.579 and the “glycan array binding signal (z-score)” value [6] was -0.489. For the same binder, the “glycan array binding signal (z-score)” value [7] was -0.599, the “glycan array binding signal (z-score)” value [8] was 0.066 and the “glycan array binding signal (z-score)” value [9] was -0.314. For the same binder, the “glycan array binding signal (z-score)” value [10] was 0.469, the “glycan array binding signal (z-score)” value [11] was -0.099 and the “glycan array binding signal (z-score)” value [12] was -0.548. For the same binder, the “glycan array binding signal (z-score)” value [13] was -0.011, the “glycan array binding signal (z-score)” value [14] was 0.201 and the “glycan array binding signal (z-score)” value [15] was 0.779. The “glycan array binding signal (z-score)” value [16] was 0.014, the “glycan array binding signal (z-score)” value [17] was -0.512 and the “glycan array binding signal (z-score)” value [18] was -0.309. The “glycan array binding signal (z-score)” value [19] was 1.23, the “glycan array binding signal (z-score)” value [20] was -0.271 and the “glycan array binding signal (z-score)” value [21] was -0.348. For the same binder, the “glycan array binding signal (z-score)” value [22] was 0.917, the “glycan array binding signal (z-score)” value [23] was -0.065 and the “glycan array binding signal (z-score)” value [24] was -0.655. The “glycan array binding signal (z-score)” value [25] was -0.285, the “glycan array binding signal (z-score)” value [26] was -0.186 and the “glycan array binding signal (z-score)” value [27] was 0.327. For the same binder, the “glycan array binding signal (z-score)” value [28] was -0.581.
